{
  "source": "patent US10973748B2",
  "about": "“Compositions and methods for lightening skin and reducing hyperpigmentation” (Versitech Limited, priority 2016, dated 2021)",
  "key": {"[1]": {"tested_on": "MelanoDerm (Mel-300-A) epidermal equivalents containing melanocytes", "experiment": "Depigmentation in artificial skin model: brightness and L* value", "type": "cell-based, human", "conditions": "6-CEPN 10 μM, 8-CEPQ 5 μM", "experimental": "(§1) Epidermal equivalents containing melanocytes (Mel-300-A) were maintained according to the manufacturer's instructions. Mel-300-A tissue was cultured in EPI-100-NMM-113 medium for 14 days. Agents were dissolved in tissue culture medium and changed every other day. The test agents were either (1) rapamycin (2.5 μM), as the positive control in depigmentation, (2) 6-CEPN (10 μM), or (3) 8-CEPQ (5 μM). The concentration of rapamycin used was lower than 6-CEPN and 8-CEPQ, as rapamycin is toxic to cells at higher concentration. Pigmentation of these skin equivalents was compared against treatment of cells with a culture medium only (denoted as “vehicle”). Tissue viability was assessed on day 14 by CCK-8 assay as described in Example 1. On day 14, single tissues were harvested and photographed. The L* parameter was used to evaluate skin lightening or darkening. The lighter the skin, the greater the L* value. ΔL* value was measured by a Chroma Meter CR400 (Konica Minolta) for an evaluation of lightening as a function of time. Three tissues for each treatment were frozen for the Solvable Melanin assay (Bessou-Touya et al., “Chimeric human epidermal reconstructs to study the role of melanocytes and keratinocytes in pigmentation and photoprotection.” Journal of investigative dermatology 111(6):1103-1108 (1998)). Additional tissues were fixed by 10% formanin. […]"}, "[2]": {"tested_on": "MelanoDerm (Mel-300-A) epidermal equivalents containing melanocytes", "experiment": "Solvable Melanin assay in artificial skin model", "type": "cell-based, human", "conditions": "14 days, rapamycin 2.5 μM, 6-CEPN 10 μM, 8-CEPQ 5 μM", "experimental": "as §1"}, "melan-a cells": {"tested_on": "melan-a cells", "experiment": "Melanosome autophagy by fluorescence microscopy", "type": "cell-based, murine", "conditions": "α-MSH, rapamycin 0.5 μM 24 hrs, 6-CEPN 10 μM, 8-CEPQ 5 μM 72 hrs", "experimental": "Melan-a cells (1.5×10^5 cells/well) were seeded on coverslips in 6-well palte. The cells were treated with (1) α-MSH (1 μM) alone for 24 hrs, (2) α-MSH (1 μM) plus rapamycin (0.5 μM) for 24 hrs, (3) α-MSH (1 μM) plus 6-CEPN (10 μM), or (3) α-MSH (1 μM) plus 8-CEPQ (5 μM) for 72 hrs. Culture medium was removed carefully after the cells reached 50%˜70% level of confluence. Cells were stained by microscopy dual detection reagents (autophagy detection kit, Abcam) for 30 mins at 37° C. The stained cells were analyzed by wide-field fluorescence microscopy (60× magnification). Standard FITC filter and DAPI filter were set to image the autophagic signal and the nuclear signal, respectively."}, "[3]": {"tested_on": "MelanoDerm (Mel-300-A) epidermal equivalents containing melanocytes", "experiment": "Fontana-Masson silver staining of artificial skin model", "type": "cell-based, human", "conditions": "day 14, rapamycin 2.5 μM, 6-CEPN 10 μM", "experimental": "as §1"}},
  "note": "At least one structure is not confirmed: it was looked up by name or label, or the drawing left a doubt.",
  "data": [
    {"smiles": "CO[C@H]1C[C@@H]2CC[C@@H](C)[C@@](O)(O2)C(=O)C(=O)N2CCCC[C@H]2C(=O)O[C@H]([C@H](C)C[C@@H]2CC[C@@H](O)[C@H](OC)C2)CC(=O)[C@H](C)/C=C(\\C)[C@@H](O)[C@@H](OC)C(=O)[C@H](C)C[C@H](C)/C=C/C=C/C=C/1C", "note": "[rapamycin, reference compound]", "values": [
      {"measurement": "brightness of the tissues (visual examination)", "setting": "[1]; 14 days, rapamycin 2.5 μM", "result": "increased the brightness of the tissues"},
      {"measurement": "L* value vs negative control", "setting": "[1]; day 14, rapamycin 2.5 μM", "result": "increased the L* value"},
      {"measurement": "amount of melanin in human skin equivalents", "setting": "[2]", "result": "significantly inhibited the amount of melanin"},
      {"measurement": "melanosome autophagy", "setting": "melan-a cells", "result": "induced melanosome autophagy"},
      {"measurement": "melanin content and distribution (Fontana Masson staining)", "setting": "[3]", "result": "no melanin was observed"}
    ]}
  ]
}
